Binding signal data for one sequence are collected here from paper PMC5996148.

Common to all, as to test: protein microarray (ProtoArray v5.0), streptavidin-Alexa Fluor 647
Conditions in all cases: 3'-biotin; 20 mM Tris (pH 7.5), 5 mM MgCl2, 100 mM KCl, 0.1% Tween-20, A/T-rich and random oligonucleotide blockers; temperature not stated; high values mean tight binding

Test [1] deals with Metallophosphoesterase 1 (human).
Test [2] relates to Metallothionein-1G (human).
The test system of another test is Metaxin-2 (human).
The test system of test [3] is Mevalonate kinase (human).
For test [4], the system named is Microfibrillar-associated protein 5 (human).
The subject of test [5] is Mirror-image polydactyly gene 1 protein (human).
The subject of test [6] is Mitochondrial 18 kDa protein (human).
Test [7] deals with Mitochondrial chaperone BCS1 (human).
The subject of test [8] is Mitochondrial coiled-coil domain protein 1 (human).
The subject of test [9] is Mitogen-activated protein kinase 10 (human).
Test [10] has as its system Mitogen-activated protein kinase 14 (human).
Test [11] relates to Mitogen-activated protein kinase kinase kinase 2 (human).
The test system of test [12] is Mps one binder kinase activator-like 3 (human).
Test [13] has as its system Myelin basic protein (human).
Test [14] deals with Myosin light chain 2, lymphocyte-specific (human).
The subject of test [15] is Myosin light chain kinase, smooth muscle (human).
In test [16] the test system is Myosin light polypeptide 6 (human).
The subject of test [17] is N-acetyltransferase 5 (human).
Test [18] deals with N-terminal EF-hand calcium-binding protein 1 (human).
Test [19] relates to N-terminal EF-hand calcium-binding protein 2 (human).

Some of the results follow.

As to “GGGAGGCTGAGGCAGG [G4-1 biotinylated (PQS2)]”, the binding signal was -0.308 z-score in test [1]; -0.34 z-score in test [2]; -0.282 z-score with Metaxin-2 (human); -0.284 z-score in [3]; -0.312 z-score in [4]; -0.332 z-score in test [5]. Moreover, the binding signal was -0.312 z-score in test [6]; -0.343 z-score in [7]; -0.354 z-score in test [8]; -0.354 z-score in test [9]; -0.286 z-score in test [10]; -0.292 z-score in [11]. Moreover, the binding signal in test [12] was -0.331 z-score; in [13] it was -0.351 z-score; in test [14], -0.349 z-score; in test [15] it was -0.356 z-score; in test [16] it was -0.257 z-score; in test [17] it was -0.296 z-score. Besides, the binding signal in test [18] is -0.319 z-score; in test [19] it was -0.324 z-score.
